{"source": "patent US5646136A", "about": "“Methods of inhibiting angiogenesis and tumor growth, and treating ophthalmologic conditions with angiostatic and therapeutic steroids” (Duke University, priority 1994, dated 1997)", "system": "corneal neovascularization", "assay": "Inhibition of corneal neovascularization in cauterized rat corneas, topical application four times per day for four days", "type": "in vivo", "details": "Experiment B; topical 0.1%; versus vehicle", "description": "The ability of etianic acids to inhibit angiogenesis was evaluated in vivo in rats. Each animal had its corneas cauterized with silver nitrate/potassium nitrate. The cauterization causes the normally avascular cornea to undergo neovascularization (anglogenesis). This animal model, refined by Proia et al., Lab. Invest. 58: 473-479 (1988) and now a well-established assay, quantifies corneal neovascularization by computerized image analysis. […] Ophthalmol. Vis. Science 30: 1588-1593 (1989), and can provide a more definitive evaluation of angiostatic activity than models using the chorioallantoic membrane in the chick egg or the rabbit eye model. See Proia et al., Exp. Eye Res. (in press--to be published in Vol. 57 in 1993).\nFemale rats were obtained from Zivic-Miller Laboratories, Zelienople, Pa. […]\nSteroids were formulated in vehicle containing 10 percent Tween 20 (polyoxyethylene sorbitan monolaurate) dissolved in 0.9 percent saline with percent (by volume) 0.2M tris (hydroxymethyl)aminomethane, pH 7.4. The steroids dissolved readily when the pH was adjusted to 7.0-8.0 with NaOH or KOH. […]\nAfter four days of treatment, the animals were euthanized by rapid asphyxiation in a carbon dioxide chamber. […] After dehydration with alcohols, cleaning with xylene, mounting, and drying, the area of each cornea and the length of blood vessels were determined by computerized image analysis. […]"}
{"smiles": "C[C@@H]1C[C@H]2[C@@H]3CCC4=CC(=O)C=C[C@]4(C)[C@@]3(F)[C@@H](O)C[C@]2(C)[C@@]1(O)C(=O)COP(=O)(O)O", "note": "[dexamethasone sodium phosphate, reference compound]", "values": [{"measurement": "Percent Inhibition of neovascularization", "value": 67, "unit": "%"}]}
